# Test results taken from the supplement of paper PMC8728848.
# This is one part of the list.
# B1: XTP3-B-MRH1 (Homo sapiens), Q96DZ1 (protein)
# chain: LLEPLFKQSSCSYRIESYWTYEVCHGKHIRQYHEEKETGQKINIHEYYLGNMLAKNLLFEKEREAEEKEKSNEIPTKNIEGQMTPYYPVGMGNGTPCSLKQNRPRSSTVMYICHPESKHEILSVAEVTTCEYEVVILTPLLCSHPKYRFRA
# What was measured:
# Experiment in all cases: glycan array binding signal (z-score within array); higher = stronger binding
# Settings in all cases: glycan notation: IUPAC condensed, linker removed
# [1] = biological target: GlcNAc(b1-3)Gal(b1-3)GalNAc
# Procedure, shortened: (§1)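 Arrays were curated from the Consortium for Functional Glycomics database, 3228 in total, and kept only where the protein sequence was available. Binding is expressed as a within-array Z-score. This score was averaged across arrays of the same protein sequence at different concentrations or buffers and across linkers, and negative values can be read as non-binding.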
# GlcNAc(b1-3)Gal(b1-4)Glc = biological target: GlcNAc(b1-3)Gal(b1-4)Glc
# Procedure, shortened: as §1
# [2] = biological target: GlcNAc(b1-3)Gal(b1-4)GlcNAc
# Procedure, shortened: as §1
# [3] = biological target: GlcNAc(b1-3)Gal(b1-4)GlcNAc(b1-2)Man(a1-3)[GlcNAc(b1-3)Gal(b1-4)GlcNAc(b1-2)Man(a1-6)]Man(b1-4)GlcNAc(b1-4)GlcNAc
# Procedure, shortened: as §1
# [4] = biological target: GlcNAc(b1-3)Gal(b1-4)GlcNAc(b1-2)Man(a1-3)[GlcNAc(b1-3)Gal(b1-4)GlcNAc(b1-2)Man(a1-6)]Man(b1-4)GlcNAc(b1-4)[Fuc(a1-6)]GlcNAc
# Procedure, shortened: as §1
# [5] = biological target: GlcNAc(b1-3)Gal(b1-4)GlcNAc(b1-2)[GlcNAc(b1-3)Gal(b1-4)GlcNAc(b1-6)]Man(a1-6)[GlcNAc(b1-3)Gal(b1-4)GlcNAc(b1-2)Man(a1-3)]Man(b1-4)GlcNAc(b1-4)GlcNAc
# Procedure, shortened: as §1
# [6] = biological target: GlcNAc(b1-3)Gal(b1-4)GlcNAc(b1-3)Gal(b1-4)GlcNAc
# Procedure, shortened: as §1
# [7] = biological target: GlcNAc(b1-3)Gal(b1-4)GlcNAc(b1-3)Gal(b1-4)GlcNAc(b1-2)Man(a1-3)[GlcNAc(b1-3)Gal(b1-4)GlcNAc(b1-3)Gal(b1-4)GlcNAc(b1-2)Man(a1-6)]Man(b1-4)GlcNAc(b1-4)GlcNAc
# Procedure, shortened: as §1
# [8] = biological target: GlcNAc(b1-3)Gal(b1-4)GlcNAc(b1-3)Gal(b1-4)GlcNAc(b1-2)Man(a1-3)[GlcNAc(b1-3)Gal(b1-4)GlcNAc(b1-3)Gal(b1-4)GlcNAc(b1-2)Man(a1-6)]Man(b1-4)GlcNAc(b1-4)[Fuc(a1-6)]GlcNAc
# Procedure, shortened: as §1
# [9] = biological target: GlcNAc(b1-3)Gal(b1-4)GlcNAc(b1-3)Gal(b1-4)GlcNAc(b1-2)[GlcNAc(b1-3)Gal(b1-4)GlcNAc(b1-3)Gal(b1-4)GlcNAc(b1-6)]Man(a1-6)[GlcNAc(b1-3)Gal(b1-4)GlcNAc(b1-3)Gal(b1-4)GlcNAc(b1-2)Man(a1-3)]Man(b1-4)GlcNAc(b1-4)[Fuc(a1-6)]GlcNAc
# Procedure, shortened: as §1
# [10] = biological target: GlcNAc(b1-3)Gal(b1-4)GlcNAc(b1-3)Gal(b1-4)GlcNAc(b1-3)Gal(b1-4)GlcNAc(b1-2)Man(a1-3)[GlcNAc(b1-3)Gal(b1-4)GlcNAc(b1-3)Gal(b1-4)GlcNAc(b1-3)Gal(b1-4)GlcNAc(b1-2)Man(a1-6)]Man(b1-4)GlcNAc(b1-4)GlcNAc
# Procedure, shortened: as §1
# [11] = biological target: GlcNAc(b1-3)Gal(b1-4)GlcNAc(b1-3)Gal(b1-4)GlcNAc(b1-3)Gal(b1-4)GlcNAc(b1-2)Man(a1-3)[GlcNAc(b1-3)Gal(b1-4)GlcNAc(b1-3)Gal(b1-4)GlcNAc(b1-3)Gal(b1-4)GlcNAc(b1-2)Man(a1-6)]Man(b1-4)GlcNAc(b1-4)[Fuc(a1-6)]GlcNAc
# Procedure, shortened: as §1
# [12] = biological target: GlcNAc(b1-3)Gal(b1-4)GlcNAc(b1-3)Gal(b1-4)GlcNAc(b1-3)Gal(b1-4)GlcNAc(b1-2)[GlcNAc(b1-3)Gal(b1-4)GlcNAc(b1-3)Gal(b1-4)GlcNAc(b1-3)Gal(b1-4)GlcNAc(b1-6)]Man(a1-6)[GlcNAc(b1-3)Gal(b1-4)GlcNAc(b1-3)Gal(b1-4)GlcNAc(b1-3)Gal(b1-4)GlcNAc(b1-2)Man(a1-3)]Man(b1-4)GlcNAc(b1-4)[Fuc(a1-6)]GlcNAc
# Procedure, shortened: as §1
# [13] = biological target: GlcNAc(b1-3)Gal(b1-4)GlcNAc(b1-3)Gal(b1-4)GlcNAc(b1-3)Gal(b1-4)GlcNAc(b1-3)Gal(b1-4)GlcNAc(b1-2)Man(a1-3)[GlcNAc(b1-3)Gal(b1-4)GlcNAc(b1-3)Gal(b1-4)GlcNAc(b1-3)Gal(b1-4)GlcNAc(b1-3)Gal(b1-4)GlcNAc(b1-2)Man(a1-6)]Man(b1-4)GlcNAc(b1-4)GlcNAc
# Procedure, shortened: as §1
# [14] = biological target: GlcNAc(b1-3)Gal(b1-4)GlcNAc(b1-3)Gal(b1-4)GlcNAc(b1-3)Gal(b1-4)GlcNAc(b1-3)Gal(b1-4)GlcNAc(b1-2)Man(a1-3)[GlcNAc(b1-3)Gal(b1-4)GlcNAc(b1-3)Gal(b1-4)GlcNAc(b1-3)Gal(b1-4)GlcNAc(b1-3)Gal(b1-4)GlcNAc(b1-2)Man(a1-6)]Man(b1-4)GlcNAc(b1-4)[Fuc(a1-6)]GlcNAc
# Procedure, shortened: as §1
# [15] = biological target: GlcNAc(b1-3)Gal(b1-4)GlcNAc(b1-3)Gal(b1-4)GlcNAc(b1-3)Gal(b1-4)GlcNAc(b1-3)Gal(b1-4)GlcNAc(b1-2)[GlcNAc(b1-3)Gal(b1-4)GlcNAc(b1-3)Gal(b1-4)GlcNAc(b1-3)Gal(b1-4)GlcNAc(b1-3)Gal(b1-4)GlcNAc(b1-6)]Man(a1-6)[GlcNAc(b1-3)Gal(b1-4)GlcNAc(b1-3)Gal(b1-4)GlcNAc(b1-3)Gal(b1-4)GlcNAc(b1-3)Gal(b1-4)GlcNAc(b1-2)Man(a1-3)]Man(b1-4)GlcNAc(b1-4)[Fuc(a1-6)]GlcNAc
# Procedure, shortened: as §1
# [16] = biological target: GlcNAc(b1-3)Gal(b1-4)GlcNAc(b1-3)Gal(b1-4)GlcNAc(b1-3)GalNAc
# Procedure, shortened: as §1
# [17] = biological target: GlcNAc(b1-3)Gal(b1-4)GlcNAc(b1-3)GalNAc
# Procedure, shortened: as §1
# [18] = biological target: GlcNAc(b1-3)Gal(b1-4)GlcNAc(b1-3)[GlcNAc(b1-3)Gal(b1-4)GlcNAc(b1-3)]GalNAc
# Procedure, shortened: as §1
# [19] = biological target: GlcNAc(b1-3)Gal(b1-4)GlcNAc(b1-6)[Gal(b1-3)]GalNAc
# Procedure, shortened: as §1
# [20] = biological target: GlcNAc(b1-3)Gal(b1-4)GlcNAc(b1-6)[GlcNAc(b1-3)Gal(b1-3)]GalNAc
# Procedure, shortened: as §1
# [21] = biological target: GlcNAc(b1-3)Gal(b1-4)GlcNAc(b1-6)[GlcNAc(b1-3)]Gal(b1-4)GlcNAc
# Procedure, shortened: as §1
# GlcNAc(b1-3)GalNAc = biological target: GlcNAc(b1-3)GalNAc
# Procedure, shortened: as §1
# GlcNAc(b1-3)Man = biological target: GlcNAc(b1-3)Man
# Procedure, shortened: as §1
# [22] = biological target: GlcNAc(b1-3)[GlcNAc(b1-4)][GlcNAc(b1-6)]GlcNAc
# Procedure, shortened: as §1
# [23] = biological target: GlcNAc(b1-3)[GlcNAc(b1-6)]Gal(b1-4)GlcNAc
# Procedure, shortened: as §1
# [24] = biological target: GlcNAc(b1-3)[GlcNAc(b1-6)]GalNAc
# Procedure, shortened: as §1
# [25] = biological target: GlcNAc(b1-4)Gal(b1-4)GlcNAc
# Procedure, shortened: as §1
# GlcNAc(b1-4)GlcNAc = biological target: GlcNAc(b1-4)GlcNAc
# Procedure, shortened: as §1
# [26] = biological target: GlcNAc(b1-4)GlcNAc(b1-4)GlcNAc
# Procedure, shortened: as §1
# [27] = biological target: GlcNAc(b1-4)GlcNAc(b1-4)GlcNAc(b1-4)GlcNAc(b1-4)GlcNAc
# Procedure, shortened: as §1
# [28] = biological target: GlcNAc(b1-4)GlcNAc(b1-4)GlcNAc(b1-4)GlcNAc(b1-4)GlcNAc(b1-4)GlcNAc
# Procedure, shortened: as §1
# [29] = biological target: GlcNAc(b1-4)[GlcNAc(b1-6)]GalNAc
# Procedure, shortened: as §1
# [30] = biological target: GlcNAc(b1-6)Gal(b1-4)GlcNAc
# Procedure, shortened: as §1
# GlcNAc(b1-6)GalNAc = biological target: GlcNAc(b1-6)GalNAc
# Procedure, shortened: as §1
# [31] = biological target: GlcNAc6S(b1-3)Gal(b1-4)GlcNAc
# Procedure, shortened: as §1
# Kdn(a2-3)Gal(b1-3)GalNAc = biological target: Kdn(a2-3)Gal(b1-3)GalNAc
# Procedure, shortened: as §1
# Kdn(a2-3)Gal(b1-3)GlcNAc = biological target: Kdn(a2-3)Gal(b1-3)GlcNAc
# Procedure, shortened: as §1
# Kdn(a2-3)Gal(b1-4)Glc = biological target: Kdn(a2-3)Gal(b1-4)Glc
# Procedure, shortened: as §1
# Kdn(a2-3)Gal(b1-4)GlcNAc = biological target: Kdn(a2-3)Gal(b1-4)GlcNAc
# Procedure, shortened: as §1
# [32] = biological target: Kdn(a2-3)Gal(b1-4)[Fuc(a1-3)]GlcNAc
# Procedure, shortened: as §1
# Kdn(a2-6)Gal(b1-4)GlcNAc = biological target: Kdn(a2-6)Gal(b1-4)GlcNAc
# Procedure, shortened: as §1
# [33] = biological target: Man(a1-2)Man(a1-2)Man(a1-3)Man
# Procedure, shortened: as §1
# [34] = biological target: Man(a1-2)Man(a1-2)Man(a1-6)[Man(a1-3)]Man
# Procedure, shortened: as §1
# Man(a1-2)Man(a1-3)Man = biological target: Man(a1-2)Man(a1-3)Man
# Procedure, shortened: as §1
binder,measurement,setting,value
B1,glycan array binding signal (z-score),[1],0.121
same,glycan array binding signal (z-score),GlcNAc(b1-3)Gal(b1-4)Glc,-0.891
same,glycan array binding signal (z-score),[2],-0.824
same,glycan array binding signal (z-score),[3],-0.918
same,glycan array binding signal (z-score),[4],-0.235
same,glycan array binding signal (z-score),[5],-0.432
same,glycan array binding signal (z-score),[6],0.29
same,glycan array binding signal (z-score),[7],2.48
same,glycan array binding signal (z-score),[8],-0.373
same,glycan array binding signal (z-score),[9],1.51
same,glycan array binding signal (z-score),[10],0.836
same,glycan array binding signal (z-score),[11],4.18
same,glycan array binding signal (z-score),[12],0.551
same,glycan array binding signal (z-score),[13],0.927
same,glycan array binding signal (z-score),[14],1.17
same,glycan array binding signal (z-score),[15],1.01
same,glycan array binding signal (z-score),[16],0.069
same,glycan array binding signal (z-score),[17],0.221
same,glycan array binding signal (z-score),[18],1.38
same,glycan array binding signal (z-score),[19],0.242
same,glycan array binding signal (z-score),[20],0.324
same,glycan array binding signal (z-score),[21],-0.938
same,glycan array binding signal (z-score),GlcNAc(b1-3)GalNAc,-0.878
same,glycan array binding signal (z-score),GlcNAc(b1-3)Man,-0.404
same,glycan array binding signal (z-score),[22],-1.04
same,glycan array binding signal (z-score),[23],-0.065
same,glycan array binding signal (z-score),[24],0.251
same,glycan array binding signal (z-score),[25],-0.31
same,glycan array binding signal (z-score),GlcNAc(b1-4)GlcNAc,-0.705
same,glycan array binding signal (z-score),[26],1.43
same,glycan array binding signal (z-score),[27],0.024
same,glycan array binding signal (z-score),[28],0.542
same,glycan array binding signal (z-score),[29],-0.863
same,glycan array binding signal (z-score),[30],0.857
same,glycan array binding signal (z-score),GlcNAc(b1-6)GalNAc,-0.151
same,glycan array binding signal (z-score),[31],-0.139
same,glycan array binding signal (z-score),Kdn(a2-3)Gal(b1-3)GalNAc,-0.148
same,glycan array binding signal (z-score),Kdn(a2-3)Gal(b1-3)GlcNAc,0.064
same,glycan array binding signal (z-score),Kdn(a2-3)Gal(b1-4)Glc,0.444
same,glycan array binding signal (z-score),Kdn(a2-3)Gal(b1-4)GlcNAc,-0.086
same,glycan array binding signal (z-score),[32],0.893
same,glycan array binding signal (z-score),Kdn(a2-6)Gal(b1-4)GlcNAc,2.17
same,glycan array binding signal (z-score),[33],-0.367
same,glycan array binding signal (z-score),[34],-0.322
same,glycan array binding signal (z-score),Man(a1-2)Man(a1-3)Man,-1.45

# Quoted from the entries so far (three entries):
binder,measurement,setting,value
B1,glycan array binding signal (z-score),[30],0.857
same,glycan array binding signal (z-score),GlcNAc(b1-6)GalNAc,-0.151
same,glycan array binding signal (z-score),[31],-0.139
